# Reference: the supplement of paper PMC8728848
# This is one part of the list.
# B1: Tp0751, 83732 (protein)
# chain: MSYYHHHHHHLESTSLYKKAGFQHGHVPPRRIPPHDTFGALPTAALPSNARDTAAHPSDTADNTSGSSTTTDPRSHGNAPPAPVGGAAQTHTQPPVQTAMRIALWNRATHGEQGALQHLLAGLWIQTEISPNSGDIHPLLFFDREHAEITFSRASVQEIFLVDSAHTHRKTVSFLTRNTAISSIRRRLEVTFESHEVIHVRAVEDVARLKIGSTSMWDGQYTRYHAGPASAPSP
# Assays:
# Assay in all cases: glycan array binding signal (z-score within array); higher = stronger binding
# Conditions in all cases: glycan notation: IUPAC condensed, linker removed
# [1] = biological target: Fuc(a1-3)GlcNAc
# Outline: (§1)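 From the Consortium for Functional Glycomics database, 3228 arrays were curated, keeping only those whose protein sequence was available. Binding is given as a within-array Z-score averaged across arrays sharing a protein sequence and across linkers. Negative Z-scores can be read as non-binding.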
# [2] = biological target: Fuc(a1-3)[Gal(b1-4)]Glc6S
# Outline: as §1
# [3] = biological target: Fuc(a1-3)[Gal(b1-4)]GlcNAc
# Outline: as §1
# [4] = biological target: Fuc(a1-3)[Gal(b1-4)]GlcNAc(b1-2)Man
# Outline: as §1
# [5] = biological target: Fuc(a1-3)[Gal(b1-4)]GlcNAc(b1-2)Man(a1-3)[Fuc(a1-3)[Gal(b1-4)]GlcNAc(b1-2)Man(a1-6)]Man(b1-4)GlcNAc(b1-4)GlcNAc
# Outline: as §1
# [6] = biological target: Fuc(a1-3)[Gal(b1-4)]GlcNAc(b1-2)Man(a1-3)[Fuc(a1-3)[Gal(b1-4)]GlcNAc(b1-2)Man(a1-6)]Man(b1-4)GlcNAc(b1-4)[Fuc(a1-6)]GlcNAc
# Outline: as §1
# [7] = biological target: Fuc(a1-3)[Gal(b1-4)]GlcNAc(b1-3)Gal(b1-3)[Fuc(a1-4)]GlcNAc
# Outline: as §1
# [8] = biological target: Fuc(a1-3)[Gal(b1-4)]GlcNAc(b1-3)GalNAc
# Outline: as §1
# [9] = biological target: Fuc(a1-3)[Gal(b1-4)]GlcNAc(b1-4)Gal(b1-4)[Fuc(a1-3)]GlcNAc
# Outline: as §1
# [10] = biological target: Fuc(a1-3)[Gal(b1-4)]GlcNAc(b1-4)Gal(b1-4)[Fuc(a1-3)]GlcNAc(b1-4)Gal(b1-4)[Fuc(a1-3)]GlcNAc
# Outline: as §1
# [11] = biological target: Fuc(a1-3)[Gal(b1-4)]GlcNAc(b1-6)GalNAc
# Outline: as §1
# [12] = biological target: Fuc(a1-3)[Gal(b1-4)]GlcNAc(b1-6)[Gal(b1-3)GlcNAc(b1-3)]Gal(b1-4)Glc
# Outline: as §1
# [13] = biological target: Fuc(a1-3)[Gal(b1-4)]GlcNAc6S
# Outline: as §1
# [14] = biological target: Fuc(a1-3)[Gal3S(b1-4)]Glc
# Outline: as §1
# [15] = biological target: Fuc(a1-3)[Gal3S(b1-4)]GlcNAc
# Outline: as §1
# [16] = biological target: Fuc(a1-3)[Gal3S(b1-4)]GlcNAc6S
# Outline: as §1
# [17] = biological target: Fuc(a1-3)[GalNAc(b1-4)]GlcNAc
# Outline: as §1
# [18] = biological target: Fuc(a1-3)[GalNAc(b1-4)]GlcNAc6S
# Outline: as §1
# [19] = biological target: Fuc(a1-4)GlcNAc
# Outline: as §1
# [20] = biological target: Fuc(b1-3)GlcNAc
# Outline: as §1
# [21] = biological target: Gal(a1-2)Gal
# Outline: as §1
# [22] = biological target: Gal(a1-3)Gal
# Outline: as §1
# [23] = biological target: Gal(a1-3)Gal(b1-3)GlcNAc
# Outline: as §1
# [24] = biological target: Gal(a1-3)Gal(b1-3)GlcNAc(b1-2)Man
# Outline: as §1
# [25] = biological target: Gal(a1-3)Gal(b1-3)GlcNAc(b1-2)Man(a1-3)[Gal(a1-3)Gal(b1-3)GlcNAc(b1-2)Man(a1-6)]Man(b1-4)GlcNAc(b1-4)GlcNAc
# Outline: as §1
# [26] = biological target: Gal(a1-3)Gal(b1-3)GlcNAc(b1-3)GalNAc
# Outline: as §1
# [27] = biological target: Gal(a1-3)Gal(b1-3)GlcNAc(b1-6)GalNAc
# Outline: as §1
# [28] = biological target: Gal(a1-3)Gal(b1-3)[Fuc(a1-4)]GlcNAc(b1-2)Man(a1-3)[Gal(a1-3)Gal(b1-3)[Fuc(a1-4)]GlcNAc(b1-2)Man(a1-6)]Man(b1-4)GlcNAc(b1-4)GlcNAc
# Outline: as §1
# [29] = biological target: Gal(a1-3)Gal(b1-4)Glc
# Outline: as §1
# [30] = biological target: Gal(a1-3)Gal(b1-4)GlcNAc
# Outline: as §1
# [31] = biological target: Gal(a1-3)Gal(b1-4)GlcNAc(b1-2)Man
# Outline: as §1
# [32] = biological target: Gal(a1-3)Gal(b1-4)GlcNAc(b1-2)Man(a1-3)[Gal(a1-3)Gal(b1-4)GlcNAc(b1-2)Man(a1-6)]Man(b1-4)GlcNAc(b1-4)GlcNAc
# Outline: as §1
# [33] = biological target: Gal(a1-3)Gal(b1-4)GlcNAc(b1-3)GalNAc
# Outline: as §1
# [34] = biological target: Gal(a1-3)Gal(b1-4)GlcNAc(b1-6)GalNAc
# Outline: as §1
# [35] = biological target: Gal(a1-3)Gal(b1-4)[Fuc(a1-3)]GlcNAc
# Outline: as §1
# [36] = biological target: Gal(a1-3)Gal(b1-4)[Fuc(a1-3)]GlcNAc(b1-2)Man(a1-3)[Gal(a1-3)Gal(b1-4)[Fuc(a1-3)]GlcNAc(b1-2)Man(a1-6)]Man(b1-4)GlcNAc(b1-4)GlcNAc
# Outline: as §1
# [37] = biological target: Gal(a1-3)GalNAc
# Outline: as §1
# [38] = biological target: Gal(a1-3)[Gal(a1-4)]Gal(b1-4)GlcNAc
# Outline: as §1
# [39] = biological target: Gal(a1-4)Gal(b1-3)GlcNAc(b1-2)Man(a1-3)[Gal(a1-4)Gal(b1-3)GlcNAc(b1-2)Man(a1-6)]Man(b1-4)GlcNAc(b1-4)GlcNAc
# Outline: as §1
# [40] = biological target: Gal(a1-4)Gal(b1-4)Glc
# Outline: as §1
# [41] = biological target: Gal(a1-4)Gal(b1-4)GlcNAc
# Outline: as §1
# [42] = biological target: Gal(a1-4)Gal(b1-4)GlcNAc(b1-2)Man(a1-3)[Gal(a1-4)Gal(b1-4)GlcNAc(b1-2)Man(a1-6)]Man(b1-4)GlcNAc(b1-4)GlcNAc
# Outline: as §1
# [43] = biological target: Gal(a1-4)Gal(b1-4)GlcNAc(b1-3)Gal(b1-4)Glc
# Outline: as §1
# [44] = biological target: Gal(a1-4)GlcNAc
# Outline: as §1
# [45] = biological target: Gal(a1-6)Glc
# Outline: as §1
binder,measurement,setting,value
B1,glycan array binding signal (z-score),[1],0.648
same,glycan array binding signal (z-score),[2],-0.281
same,glycan array binding signal (z-score),[3],-0.124
same,glycan array binding signal (z-score),[4],0.107
same,glycan array binding signal (z-score),[5],0.837
same,glycan array binding signal (z-score),[6],-0.382
same,glycan array binding signal (z-score),[7],-0.322
same,glycan array binding signal (z-score),[8],-0.708
same,glycan array binding signal (z-score),[9],0.073
same,glycan array binding signal (z-score),[10],-0.247
same,glycan array binding signal (z-score),[11],-0.015
same,glycan array binding signal (z-score),[12],0.413
same,glycan array binding signal (z-score),[13],0.149
same,glycan array binding signal (z-score),[14],-0.341
same,glycan array binding signal (z-score),[15],-0.443
same,glycan array binding signal (z-score),[16],0.628
same,glycan array binding signal (z-score),[17],1.32
same,glycan array binding signal (z-score),[18],-0.326
same,glycan array binding signal (z-score),[19],-0.55
same,glycan array binding signal (z-score),[20],-0.739
same,glycan array binding signal (z-score),[21],1.06
same,glycan array binding signal (z-score),[22],-0.242
same,glycan array binding signal (z-score),[23],0.661
same,glycan array binding signal (z-score),[24],-0.003
same,glycan array binding signal (z-score),[25],0.157
same,glycan array binding signal (z-score),[26],0.061
same,glycan array binding signal (z-score),[27],-0.227
same,glycan array binding signal (z-score),[28],0.411
same,glycan array binding signal (z-score),[29],-0.074
same,glycan array binding signal (z-score),[30],-0.348
same,glycan array binding signal (z-score),[31],-0.402
same,glycan array binding signal (z-score),[32],0.262
same,glycan array binding signal (z-score),[33],-0.025
same,glycan array binding signal (z-score),[34],0.534
same,glycan array binding signal (z-score),[35],-0.637
same,glycan array binding signal (z-score),[36],0.606
same,glycan array binding signal (z-score),[37],-0.017
same,glycan array binding signal (z-score),[38],0.497
same,glycan array binding signal (z-score),[39],-0.188
same,glycan array binding signal (z-score),[40],-0.364
same,glycan array binding signal (z-score),[41],0.255
same,glycan array binding signal (z-score),[42],0.305
same,glycan array binding signal (z-score),[43],-0.075
same,glycan array binding signal (z-score),[44],0.005
same,glycan array binding signal (z-score),[45],-0.113
